Assay results reported in patent US10982252B2, “Bacterial systems for analyzing ubiquitylated polypeptides” (Technology Innovation Momentum Fund (Israel) Limited …, priority 2016, dated 2021).
Some of these results come from one statement about several compounds together.

Tested on: Ub
Test: Ubiquitination yield of yeast His6-MBP-ENTH purified from E. coli, western blot
Assay type: biochemical
Conditions: ubiquitylated/apo ratio versus wild-type, four independent experiments; FIGS. 5G-H

Ub R42E, R72E: R42E, R72E double mutant of ubiquitin
reduction of ubiquitination yield: 60-80%
